Experimental findings from doi:10.1101/2023.10.27.564116 are described below.

These are yes or no findings as the source states them, for the method shown. Binding seen in cells or lysates may run through a third protein. Binding can be weak; no strength is given. For part of these data: Where a sequence is shown, tags or fusion partners need not be part of it.

Assay [1] addresses T1, human SART1 (squamous cell carcinoma antigen recognized by T-cells 1), endogenous (human (endogenous in HeLa)) (UniProt O43290).
T1 sequence: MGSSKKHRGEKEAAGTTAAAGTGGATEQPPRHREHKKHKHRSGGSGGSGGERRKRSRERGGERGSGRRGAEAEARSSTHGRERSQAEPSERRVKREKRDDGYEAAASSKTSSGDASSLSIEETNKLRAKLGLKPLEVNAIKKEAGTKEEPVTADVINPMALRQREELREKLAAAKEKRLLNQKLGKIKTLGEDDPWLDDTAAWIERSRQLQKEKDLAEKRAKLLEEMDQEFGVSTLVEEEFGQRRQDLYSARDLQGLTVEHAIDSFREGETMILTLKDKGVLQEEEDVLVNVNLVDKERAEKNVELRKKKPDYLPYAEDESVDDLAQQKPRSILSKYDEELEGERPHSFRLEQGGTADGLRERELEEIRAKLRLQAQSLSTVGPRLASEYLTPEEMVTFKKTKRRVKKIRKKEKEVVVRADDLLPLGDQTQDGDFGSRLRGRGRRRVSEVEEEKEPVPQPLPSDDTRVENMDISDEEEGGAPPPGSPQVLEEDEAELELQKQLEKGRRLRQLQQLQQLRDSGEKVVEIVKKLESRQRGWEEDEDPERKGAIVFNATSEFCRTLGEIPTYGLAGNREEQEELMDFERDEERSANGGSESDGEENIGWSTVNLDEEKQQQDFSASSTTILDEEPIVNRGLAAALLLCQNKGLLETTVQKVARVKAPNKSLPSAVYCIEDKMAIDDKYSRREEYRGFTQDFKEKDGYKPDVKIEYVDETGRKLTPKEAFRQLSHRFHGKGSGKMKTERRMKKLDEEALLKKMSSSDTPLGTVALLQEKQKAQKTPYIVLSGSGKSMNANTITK
In words: co-sedimentation.

In assay [2] the target is taxol-stabilized microtubules. In words: co-sedimentation.

Consider recombinant importin α/β complex, for which the binding result in assay [1] is on record as “binds”.

B1: human SART1 (squamous cell carcinoma antigen recognized by T-cells 1), endogenous (protein, UniProt O43290 1-800)
chain: MGSSKKHRGEKEAAGTTAAAGTGGATEQPPRHREHKKHKHRSGGSGGSGGERRKRSRERGGERGSGRRGAEAEARSSTHGRERSQAEPSERRVKREKRDDGYEAAASSKTSSGDASSLSIEETNKLRAKLGLKPLEVNAIKKEAGTKEEPVTADVINPMALRQREELREKLAAAKEKRLLNQKLGKIKTLGEDDPWLDDTAAWIERSRQLQKEKDLAEKRAKLLEEMDQEFGVSTLVEEEFGQRRQDLYSARDLQGLTVEHAIDSFREGETMILTLKDKGVLQEEEDVLVNVNLVDKERAEKNVELRKKKPDYLPYAEDESVDDLAQQKPRSILSKYDEELEGERPHSFRLEQGGTADGLRERELEEIRAKLRLQAQSLSTVGPRLASEYLTPEEMVTFKKTKRRVKKIRKKEKEVVVRADDLLPLGDQTQDGDFGSRLRGRGRRRVSEVEEEKEPVPQPLPSDDTRVENMDISDEEEGGAPPPGSPQVLEEDEAELELQKQLEKGRRLRQLQQLQQLRDSGEKVVEIVKKLESRQRGWEEDEDPERKGAIVFNATSEFCRTLGEIPTYGLAGNREEQEELMDFERDEERSANGGSESDGEENIGWSTVNLDEEKQQQDFSASSTTILDEEPIVNRGLAAALLLCQNKGLLETTVQKVARVKAPNKSLPSAVYCIEDKMAIDDKYSRREEYRGFTQDFKEKDGYKPDVKIEYVDETGRKLTPKEAFRQLSHRFHGKGSGKMKTERRMKKLDEEALLKKMSSSDTPLGTVALLQEKQKAQKTPYIVLSGSGKSMNANTITK
As for B1, the binding result in assay [2] is “binds”.

B2: human SART1 full-length, resistant to siSART1#3, FLAG-tagged (pCI-neo-hsSART1) (protein, UniProt O43290 1-800)
chain: MGSSKKHRGEKEAAGTTAAAGTGGATEQPPRHREHKKHKHRSGGSGGSGGERRKRSRERGGERGSGRRGAEAEARSSTHGRERSQAEPSERRVKREKRDDGYEAAASSKTSSGDASSLSIEETNKLRAKLGLKPLEVNAIKKEAGTKEEPVTADVINPMALRQREELREKLAAAKEKRLLNQKLGKIKTLGEDDPWLDDTAAWIERSRQLQKEKDLAEKRAKLLEEMDQEFGVSTLVEEEFGQRRQDLYSARDLQGLTVEHAIDSFREGETMILTLKDKGVLQEEEDVLVNVNLVDKERAEKNVELRKKKPDYLPYAEDESVDDLAQQKPRSILSKYDEELEGERPHSFRLEQGGTADGLRERELEEIRAKLRLQAQSLSTVGPRLASEYLTPEEMVTFKKTKRRVKKIRKKEKEVVVRADDLLPLGDQTQDGDFGSRLRGRGRRRVSEVEEEKEPVPQPLPSDDTRVENMDISDEEEGGAPPPGSPQVLEEDEAELELQKQLEKGRRLRQLQQLQQLRDSGEKVVEIVKKLESRQRGWEEDEDPERKGAIVFNATSEFCRTLGEIPTYGLAGNREEQEELMDFERDEERSANGGSESDGEENIGWSTVNLDEEKQQQDFSASSTTILDEEPIVNRGLAAALLLCQNKGLLETTVQKVARVKAPNKSLPSAVYCIEDKMAIDDKYSRREEYRGFTQDFKEKDGYKPDVKIEYVDETGRKLTPKEAFRQLSHRFHGKGSGKMKTERRMKKLDEEALLKKMSSSDTPLGTVALLQEKQKAQKTPYIVLSGSGKSMNANTITK
In the case of B2, the binding entry in assay [2] is “binds”.
